Reference: patent publication US9540654B2, “Synthetic brassica-derived chloroplast transit peptides” (Dow AgroSciences LLC, priority 2012, dated 2017)
Some entries share one result that the patent states for a list of compounds.

B1: TraP8: chloroplast transit peptide (SEQ ID NO:30) linked with dgt-28 (protein)
chain: MAQSSRICHGVQNPCVIISNLSKSNQNKSPFSVSLKTHQQQRRAYQISSWGLKKSNNGSVIRPVKA
modifications: Chloroplast Transit Peptide
B2: TraP4: chloroplast transit peptide (SEQ ID NO:28) linked with dgt-28 (protein)
chain: MLARQGGSLRASQCNAGLARRVEVGALVVPRPISVNDVVPHVYSAPLSVARRSCSKSSIRSTRRLQTTVCS
modifications: Chloroplast Transit Peptide
B3: TraP5: chloroplast transit peptide (SEQ ID NO:29) linked with dgt-28 (protein)
chain: MQLLNQRQALRLGRSSASKNQQVAPLASRPASSLSVSASSVAPAPACSAPAGAGRRAVVVRA
modifications: Chloroplast Transit Peptide
B4: TraP23: chloroplast transit peptide (SEQ ID NO:41) linked with dgt-28 or dgt-31 (protein)
chain: MAQINKSANGVRNASLISNFSNTRQAKSPFSLSCGTRLKNSSRGLKKVAVRLIGSRVKVSAS
modifications: Chloroplast Transit Peptide

Assays:
wheat Bobwhite MPB26RH = assay: Glyphosate resistance of T1 dgt-28 wheat (visual injury scale 21 DAT); format: in vivo; conditions: T1 dgt-28 wheat plants
Zea mays = assay: Glyphosate tolerance of F1 (T1) single copy dgt-28 corn under greenhouse conditions; format: in vivo; conditions: dgt-28 linked with the transit peptide

Row | Molecule | glyphosate rate up to which tolerance was achieved (wheat Bobwhite MPB26RH) | glyphosate rate up to which robust tolerance was shown (Zea mays)
1 | B1 | up to 3360 g ae/ha | up to 4480 g ae/ha
2 | B2 | up to 3360 g ae/ha | 
3 | B3 | up to 3360 g ae/ha | 
4 | B4 | up to 3360 g ae/ha | 
